PubChem BioAssay AID1224830, NIAID | 2016

- Purpose: 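Genes whose knock-down alters the TNF-alpha reporter response to LPS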 (primary screen)
- Cell system: human THP-1 monocytic leukaemia cells, TNF dual-luciferase reporter clone, PMA-differentiated to macrophage-like cells
- Knock-down reagent: siRNA pool against human genes, 50 nM
- Duration: LPS for 4 h, given about 3 days after siRNA transfection
- Conditions: bacterial LPS (TLR4 ligand), 10 ng/ml
- Measurement: 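TNF firefly reporter luminescence divided by renilla, normalised to the plate median, then turned into a robust z-score for each replicate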
- Scale: TNF reporter robust z-score: higher = stronger TNF reporter response to LPS
- Rule for the call: 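Each well counts as active if its z-score is over 2.8 or under -1.5; controls are left without a call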
In all, the deposit lists about 18,000 reagents; shown is a part drawn at random. About 2,900 of them (16%) count as active. 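Calls are made per well; low scores hint the gene aids the LPS response, high scores that it dampens it.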 Repeated entries: four replicate wells of each siRNA pool.

Target gene	TNF reporter robust z-score	Call
HIRA	-1.21	inactive
HIRA	-0.89	inactive
HIRA	-0.97	inactive
HIRA	-0.27	inactive
ABHD3	0.02	inactive
ABHD3	-0.1	inactive
ABHD3	-0.66	inactive
ABHD3	0.2	inactive
PARD6B	-0.17	inactive
PARD6B	0.37	inactive
PARD6B	0.22	inactive
PARD6B	0.78	inactive
NDST3	-0.47	inactive
NDST3	4.71	active
NDST3	0.25	inactive
NDST3	1.13	inactive
RARS2	-1.85	active
RARS2	-1.09	inactive
RARS2	-1.06	inactive
RARS2	-0.45	inactive
PRRT3	0.21	inactive
PRRT3	-0.42	inactive
PRRT3	-0.12	inactive
PRRT3	-0.04	inactive
GSDMD	-0.67	inactive
GSDMD	-1.69	active
GSDMD	-1.54	active
GSDMD	-0.54	inactive
UBTFL7	-1.59	active
UBTFL7	-0.38	inactive
UBTFL7	0.31	inactive
UBTFL7	-0.39	inactive
SFT2D1	1.73	inactive
SFT2D1	0.01	inactive
SFT2D1	0.81	inactive
SFT2D1	-0.08	inactive
SLC51A	-0.25	inactive
SLC51A	-0.4	inactive
SLC51A	0.05	inactive
SLC51A	-0.11	inactive
OGFOD1	-1.73	active
OGFOD1	-0.49	inactive
OGFOD1	-0.09	inactive
OGFOD1	-0.51	inactive
KCNK17	0	inactive
KCNK17	0.74	inactive
KCNK17	0.32	inactive
KCNK17	-0.42	inactive
ANKEF1	-0.36	inactive
ANKEF1	-0.15	inactive
ANKEF1	-0.39	inactive
ANKEF1	0.23	inactive
ABCF1	-0.15	inactive
ABCF1	0.61	inactive
ABCF1	0.5	inactive
ABCF1	0.52	inactive
S100A5	1.38	inactive
S100A5	1.56	inactive
S100A5	0.21	inactive
S100A5	0.96	inactive
PMS2P5	0.95	inactive
PMS2P5	0.01	inactive
PMS2P5	0.61	inactive
PMS2P5	0.98	inactive
RGMB	0.37	inactive
RGMB	0.49	inactive
RGMB	-0.99	inactive
RGMB	-0.21	inactive
PRCP	0.07	inactive
PRCP	0.56	inactive
PRCP	0.7	inactive
PRCP	0.23	inactive
PLGLB2	-0.63	inactive
PLGLB2	1.43	inactive
PLGLB2	-0.09	inactive
PLGLB2	-0.24	inactive
ZNF608	0.47	inactive
ZNF608	0	inactive
ZNF608	0.86	inactive
ZNF608	0.3	inactive
POLR2G	-0.46	inactive
POLR2G	-1.36	inactive
POLR2G	0.14	inactive
POLR2G	-0.16	inactive
GLMP	-0.57	inactive
GLMP	-0.17	inactive
GLMP	-0.37	inactive
GLMP	-0.89	inactive
PBDC1	-1.67	active
PBDC1	-0.98	inactive
PBDC1	-0.35	inactive
PBDC1	0.2	inactive
MEF2D	-0.58	inactive
MEF2D	-0.59	inactive
MEF2D	-1.2	inactive
MEF2D	-0.6	inactive
CYP46A1	0.23	inactive
CYP46A1	0.25	inactive
CYP46A1	-0.17	inactive
CYP46A1	1.76	inactive
NDFIP1	0.46	inactive
NDFIP1	1.47	inactive
NDFIP1	1.1	inactive
NDFIP1	0.68	inactive
SFRP5	0.18	inactive
SFRP5	1.94	inactive
SFRP5	1.5	inactive
SFRP5	2.82	active
PGF	0.9	inactive
PGF	0.59	inactive
PGF	0.2	inactive
PGF	-1.15	inactive
